Laboratory results published in the supplement of paper PMC10849652.
This is one part of the list.

Chains of the proteins cited; added tags and fusions are not shown. Lines headed by an entry give the natural chain unless they say otherwise; changes in a name come on top.
UniProt P33316: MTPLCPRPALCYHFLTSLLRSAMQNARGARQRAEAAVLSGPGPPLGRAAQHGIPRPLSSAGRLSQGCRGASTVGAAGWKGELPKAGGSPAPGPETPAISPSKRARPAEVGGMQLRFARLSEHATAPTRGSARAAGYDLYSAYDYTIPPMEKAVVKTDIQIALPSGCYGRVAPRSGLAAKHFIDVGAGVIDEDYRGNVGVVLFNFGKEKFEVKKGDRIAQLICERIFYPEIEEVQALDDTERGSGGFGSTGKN
UniProt Q9NY33: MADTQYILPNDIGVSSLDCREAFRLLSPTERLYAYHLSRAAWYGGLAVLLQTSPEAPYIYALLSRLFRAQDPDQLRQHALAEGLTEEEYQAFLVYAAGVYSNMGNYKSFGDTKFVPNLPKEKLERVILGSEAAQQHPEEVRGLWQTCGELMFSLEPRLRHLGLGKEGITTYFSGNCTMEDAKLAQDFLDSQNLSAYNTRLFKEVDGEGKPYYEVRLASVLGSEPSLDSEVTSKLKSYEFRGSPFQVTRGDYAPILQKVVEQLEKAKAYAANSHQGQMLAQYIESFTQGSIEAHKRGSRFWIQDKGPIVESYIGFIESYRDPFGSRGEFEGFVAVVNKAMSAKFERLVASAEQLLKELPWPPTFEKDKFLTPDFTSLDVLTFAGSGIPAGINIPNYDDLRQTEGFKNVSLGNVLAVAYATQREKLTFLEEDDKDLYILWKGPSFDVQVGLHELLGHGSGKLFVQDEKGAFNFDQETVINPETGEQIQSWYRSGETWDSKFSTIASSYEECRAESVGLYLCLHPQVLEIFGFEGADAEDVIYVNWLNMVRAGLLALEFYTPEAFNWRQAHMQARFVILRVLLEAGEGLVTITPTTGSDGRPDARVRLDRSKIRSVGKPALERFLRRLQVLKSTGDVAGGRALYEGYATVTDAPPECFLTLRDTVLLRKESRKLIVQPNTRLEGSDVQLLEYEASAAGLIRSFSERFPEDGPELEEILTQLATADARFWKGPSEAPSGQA
UniProt P23919: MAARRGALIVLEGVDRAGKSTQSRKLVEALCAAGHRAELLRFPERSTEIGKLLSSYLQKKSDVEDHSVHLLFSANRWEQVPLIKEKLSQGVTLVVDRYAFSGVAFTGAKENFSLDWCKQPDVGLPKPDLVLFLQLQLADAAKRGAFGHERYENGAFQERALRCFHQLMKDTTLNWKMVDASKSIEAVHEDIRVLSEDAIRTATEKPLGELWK
UniProt Q9Y3R5: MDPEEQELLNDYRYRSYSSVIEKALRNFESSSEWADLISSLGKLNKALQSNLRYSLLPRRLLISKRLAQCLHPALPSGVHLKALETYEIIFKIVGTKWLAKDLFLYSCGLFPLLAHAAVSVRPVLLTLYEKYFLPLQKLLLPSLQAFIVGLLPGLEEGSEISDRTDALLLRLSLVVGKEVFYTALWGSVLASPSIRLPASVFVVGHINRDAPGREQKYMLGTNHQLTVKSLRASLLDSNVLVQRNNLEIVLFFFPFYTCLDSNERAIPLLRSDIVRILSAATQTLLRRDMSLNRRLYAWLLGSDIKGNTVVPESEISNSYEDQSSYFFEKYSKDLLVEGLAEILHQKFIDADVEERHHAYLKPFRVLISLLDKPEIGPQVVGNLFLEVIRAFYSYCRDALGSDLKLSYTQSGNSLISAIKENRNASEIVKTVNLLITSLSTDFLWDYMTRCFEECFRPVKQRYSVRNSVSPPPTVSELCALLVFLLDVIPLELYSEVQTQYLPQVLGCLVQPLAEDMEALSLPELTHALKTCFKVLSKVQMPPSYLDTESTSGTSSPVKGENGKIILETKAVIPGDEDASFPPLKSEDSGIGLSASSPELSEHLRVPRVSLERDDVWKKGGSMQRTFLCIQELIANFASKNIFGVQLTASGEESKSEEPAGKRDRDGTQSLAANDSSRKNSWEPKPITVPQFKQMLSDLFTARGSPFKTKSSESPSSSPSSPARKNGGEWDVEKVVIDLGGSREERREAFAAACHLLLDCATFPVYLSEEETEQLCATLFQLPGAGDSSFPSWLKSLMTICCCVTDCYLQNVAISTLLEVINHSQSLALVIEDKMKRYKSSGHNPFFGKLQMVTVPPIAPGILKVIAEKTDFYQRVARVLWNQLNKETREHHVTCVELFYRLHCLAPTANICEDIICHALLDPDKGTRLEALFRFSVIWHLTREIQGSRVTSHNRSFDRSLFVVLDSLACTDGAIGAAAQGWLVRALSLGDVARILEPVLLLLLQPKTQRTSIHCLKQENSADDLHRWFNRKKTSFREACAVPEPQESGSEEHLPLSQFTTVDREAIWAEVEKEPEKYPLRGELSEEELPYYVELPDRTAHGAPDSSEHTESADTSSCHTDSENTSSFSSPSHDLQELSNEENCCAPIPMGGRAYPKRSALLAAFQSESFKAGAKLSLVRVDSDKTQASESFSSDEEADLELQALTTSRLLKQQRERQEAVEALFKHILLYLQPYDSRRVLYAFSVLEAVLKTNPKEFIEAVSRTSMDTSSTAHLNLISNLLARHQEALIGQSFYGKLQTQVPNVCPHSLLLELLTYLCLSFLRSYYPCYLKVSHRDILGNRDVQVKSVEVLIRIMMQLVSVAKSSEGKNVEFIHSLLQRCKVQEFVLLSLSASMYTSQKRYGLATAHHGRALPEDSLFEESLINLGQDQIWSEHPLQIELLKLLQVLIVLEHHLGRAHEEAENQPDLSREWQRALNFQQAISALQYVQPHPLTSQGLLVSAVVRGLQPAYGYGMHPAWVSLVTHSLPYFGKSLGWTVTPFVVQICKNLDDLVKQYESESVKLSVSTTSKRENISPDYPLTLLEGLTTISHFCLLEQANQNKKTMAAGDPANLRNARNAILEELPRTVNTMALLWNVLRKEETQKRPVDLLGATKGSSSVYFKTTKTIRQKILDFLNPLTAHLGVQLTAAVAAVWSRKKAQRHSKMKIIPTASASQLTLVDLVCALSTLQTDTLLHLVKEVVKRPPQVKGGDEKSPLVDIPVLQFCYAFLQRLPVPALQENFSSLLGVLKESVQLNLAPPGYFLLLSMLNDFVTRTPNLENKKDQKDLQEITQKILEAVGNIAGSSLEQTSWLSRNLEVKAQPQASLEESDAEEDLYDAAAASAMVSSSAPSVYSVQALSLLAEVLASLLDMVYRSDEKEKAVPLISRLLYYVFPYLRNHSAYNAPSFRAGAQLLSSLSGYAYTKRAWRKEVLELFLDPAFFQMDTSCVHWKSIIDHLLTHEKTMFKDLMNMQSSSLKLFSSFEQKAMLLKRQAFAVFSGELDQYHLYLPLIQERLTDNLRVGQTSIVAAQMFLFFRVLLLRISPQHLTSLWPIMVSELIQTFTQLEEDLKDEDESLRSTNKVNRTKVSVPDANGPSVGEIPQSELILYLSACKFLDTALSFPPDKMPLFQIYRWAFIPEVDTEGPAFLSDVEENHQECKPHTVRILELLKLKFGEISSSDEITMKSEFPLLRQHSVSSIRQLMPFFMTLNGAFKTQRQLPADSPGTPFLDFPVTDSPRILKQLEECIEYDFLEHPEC
UniProt Q9NX74: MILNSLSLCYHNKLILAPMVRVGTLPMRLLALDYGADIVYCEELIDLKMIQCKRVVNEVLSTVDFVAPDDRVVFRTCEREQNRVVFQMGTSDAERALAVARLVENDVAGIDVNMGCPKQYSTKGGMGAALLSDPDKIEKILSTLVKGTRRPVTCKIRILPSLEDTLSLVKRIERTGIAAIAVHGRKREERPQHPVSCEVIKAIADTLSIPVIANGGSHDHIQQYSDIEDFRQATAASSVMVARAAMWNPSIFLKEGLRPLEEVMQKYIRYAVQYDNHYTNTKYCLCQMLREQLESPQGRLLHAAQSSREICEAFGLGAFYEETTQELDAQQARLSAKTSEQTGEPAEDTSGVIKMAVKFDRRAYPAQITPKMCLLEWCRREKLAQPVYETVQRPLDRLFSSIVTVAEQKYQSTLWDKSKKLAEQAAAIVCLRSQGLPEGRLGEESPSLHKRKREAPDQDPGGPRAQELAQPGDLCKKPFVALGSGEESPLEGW
UniProt Q8TBM8: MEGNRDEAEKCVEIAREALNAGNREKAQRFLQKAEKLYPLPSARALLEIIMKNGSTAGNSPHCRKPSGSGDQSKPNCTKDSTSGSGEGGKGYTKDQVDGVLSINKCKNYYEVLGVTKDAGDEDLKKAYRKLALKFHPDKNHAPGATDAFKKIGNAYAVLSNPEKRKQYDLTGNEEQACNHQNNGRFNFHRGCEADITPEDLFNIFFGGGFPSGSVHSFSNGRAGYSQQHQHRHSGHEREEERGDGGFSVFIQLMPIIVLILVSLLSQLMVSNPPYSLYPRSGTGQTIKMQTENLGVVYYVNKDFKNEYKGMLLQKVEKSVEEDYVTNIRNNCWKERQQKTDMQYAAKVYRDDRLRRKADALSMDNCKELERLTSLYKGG
UniProt Q6ZPD9: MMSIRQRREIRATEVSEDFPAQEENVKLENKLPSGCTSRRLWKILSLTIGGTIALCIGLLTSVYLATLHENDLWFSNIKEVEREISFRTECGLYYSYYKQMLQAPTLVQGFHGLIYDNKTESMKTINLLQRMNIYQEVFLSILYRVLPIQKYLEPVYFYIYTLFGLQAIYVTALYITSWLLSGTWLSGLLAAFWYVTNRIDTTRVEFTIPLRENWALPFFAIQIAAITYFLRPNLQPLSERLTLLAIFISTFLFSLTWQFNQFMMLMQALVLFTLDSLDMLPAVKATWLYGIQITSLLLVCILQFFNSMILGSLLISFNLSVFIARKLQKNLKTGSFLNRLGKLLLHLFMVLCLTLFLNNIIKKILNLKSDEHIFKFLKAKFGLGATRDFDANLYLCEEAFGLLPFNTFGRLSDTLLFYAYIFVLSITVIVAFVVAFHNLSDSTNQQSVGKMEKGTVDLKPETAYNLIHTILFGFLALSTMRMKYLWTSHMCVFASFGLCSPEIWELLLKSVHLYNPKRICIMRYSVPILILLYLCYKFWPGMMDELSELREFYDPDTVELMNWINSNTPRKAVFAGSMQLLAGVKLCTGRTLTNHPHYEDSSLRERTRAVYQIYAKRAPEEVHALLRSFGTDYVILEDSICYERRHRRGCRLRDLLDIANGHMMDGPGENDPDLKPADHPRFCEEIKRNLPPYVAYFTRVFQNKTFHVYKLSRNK
UniProt Q96G46: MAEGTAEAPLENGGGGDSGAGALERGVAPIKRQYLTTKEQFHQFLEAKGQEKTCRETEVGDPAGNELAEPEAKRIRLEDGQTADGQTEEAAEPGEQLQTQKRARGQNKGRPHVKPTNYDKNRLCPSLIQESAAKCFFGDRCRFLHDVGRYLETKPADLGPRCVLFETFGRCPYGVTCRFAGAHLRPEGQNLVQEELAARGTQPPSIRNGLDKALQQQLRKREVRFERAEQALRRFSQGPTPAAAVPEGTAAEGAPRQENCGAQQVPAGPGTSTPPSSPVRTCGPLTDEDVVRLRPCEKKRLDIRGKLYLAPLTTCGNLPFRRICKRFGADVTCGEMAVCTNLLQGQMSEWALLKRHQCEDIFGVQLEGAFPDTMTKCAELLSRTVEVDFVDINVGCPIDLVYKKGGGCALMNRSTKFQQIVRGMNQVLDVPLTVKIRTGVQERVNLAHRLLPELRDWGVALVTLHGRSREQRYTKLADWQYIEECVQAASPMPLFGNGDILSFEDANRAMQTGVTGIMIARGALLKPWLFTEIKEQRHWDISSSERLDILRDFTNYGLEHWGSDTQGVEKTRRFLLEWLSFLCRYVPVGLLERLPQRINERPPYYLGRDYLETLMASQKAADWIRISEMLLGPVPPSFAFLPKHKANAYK
UniProt Q9NP97, whole entry, looked up: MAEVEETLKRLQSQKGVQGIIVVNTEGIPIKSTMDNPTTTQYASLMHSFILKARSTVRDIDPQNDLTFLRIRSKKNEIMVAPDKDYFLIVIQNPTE
UniProt Q15125: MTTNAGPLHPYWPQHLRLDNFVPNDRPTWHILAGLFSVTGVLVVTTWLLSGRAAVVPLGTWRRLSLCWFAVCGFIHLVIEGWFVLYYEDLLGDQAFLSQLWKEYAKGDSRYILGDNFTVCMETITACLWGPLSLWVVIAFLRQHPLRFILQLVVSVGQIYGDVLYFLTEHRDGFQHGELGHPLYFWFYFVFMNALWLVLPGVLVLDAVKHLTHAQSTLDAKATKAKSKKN
UniProt Q14919: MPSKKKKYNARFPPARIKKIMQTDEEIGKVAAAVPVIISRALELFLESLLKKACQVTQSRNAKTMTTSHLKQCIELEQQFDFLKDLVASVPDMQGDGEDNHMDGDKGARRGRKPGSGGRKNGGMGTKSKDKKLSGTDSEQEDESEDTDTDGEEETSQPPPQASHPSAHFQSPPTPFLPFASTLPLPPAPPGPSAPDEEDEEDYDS
UniProt Q9BU89: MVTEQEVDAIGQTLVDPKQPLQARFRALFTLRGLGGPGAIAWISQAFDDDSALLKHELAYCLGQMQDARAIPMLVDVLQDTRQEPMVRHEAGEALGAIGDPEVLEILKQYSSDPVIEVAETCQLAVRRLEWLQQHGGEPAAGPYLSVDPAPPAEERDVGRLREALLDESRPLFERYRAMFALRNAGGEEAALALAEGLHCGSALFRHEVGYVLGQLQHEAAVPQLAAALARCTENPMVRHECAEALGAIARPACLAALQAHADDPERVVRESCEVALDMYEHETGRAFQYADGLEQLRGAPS

Columns and labels:
Assay in all cases: log2 fold change, soluble protein after heating vs DMSO (PISA); higher = thermal stabilisation; K562 cells, 10 uM, 30 min; active = over 0.2 and 3.5 SD of the protein, either way, in both replicates (recomputed)
[1] = compound: CS(=O)(=O)c1ccc(-c2cnc(N)c(C(=O)Nc3ccccc3)n2)cc1
In short: (§1)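 Soluble protein was defined as the supernatant after 21,000xg for 90 min. It came from K562 cells at 2×10^6 cells/mL given 10 μM compound for 30 min, heated in aliquots for 3 min across 48°C-58°C, pooled, and extracted in PBS with 0.5% NP-40 at 4°C, and was quantified by TMTpro 16plex LC-MS/MS with equalised channel sums. Thermal stability against control samples, from duplicates, is reported as log2 fold change.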

crizotinib = compound: C[C@@H](Oc1cc(-c2cnn(C3CCNCC3)c2)cnc1N)c1c(Cl)ccc(F)c1Cl [crizotinib]
In short: as §1

[2] = compound: C[C@@H]1COCCN1C2=NC(=NC(=C2)C3(CC3)S(=O)(=O)C)C4=C5C=CNC5=CC=C4
In short: as §1

[3] = compound: C[C@H](C1=CC=C(C=C1)C(=O)NC2=C3C=CNC3=NC=C2)N
In short: as §1

duvelisib = compound: C[C@H](Nc1ncnc2nc[nH]c12)c1cc2cccc(Cl)c2c(=O)n1-c1ccccc1 [duvelisib]
In short: as §1

gandotinib = compound: Cc1cc(Nc2cc(CN3CCOCC3)c3nc(C)c(Cc4ccc(Cl)cc4F)n3n2)n[nH]1 [gandotinib]
In short: as §1

tozasertib = compound: Cc1cc(Nc2cc(N3CCN(C)CC3)nc(Sc3ccc(NC(=O)C4CC4)cc3)n2)n[nH]1 [tozasertib]
In short: as §1

[4] = compound: Cc1cc(SCc2sc(-c3ccc(C(F)(F)F)cc3)nc2C)ccc1OCC(=O)O
In short: as §1

doramapimod = compound: Cc1ccc(-n2nc(C(C)(C)C)cc2NC(=O)Nc2ccc(OCCN3CCOCC3)c3ccccc23)cc1 [doramapimod]
In short: as §1

ispinesib = compound: Cc1ccc(C(=O)N(CCCN)[C@@H](c2nc3cc(Cl)ccc3c(=O)n2Cc2ccccc2)C(C)C)cc1 [ispinesib]
In short: as §1

Measured: log2 fold change

DYNC1LI1 (UniProt Q9Y6G9)
inactive: [1] 0.054 | crizotinib -0.087 | [2] -0.006 | [3] 0.001 | duvelisib -0.029 | gandotinib -0.014 | tozasertib -0.018 | [4] 0.04 | doramapimod -0.006 | ispinesib -0.027

EDEM1 (UniProt Q92611)
inactive: [1] 0.041 | crizotinib 0.008 | [2] -0.076 | [3] 0.053 | duvelisib 0.104 | gandotinib -0.002 | tozasertib 0.045 | [4] 0.037 | doramapimod 0.026 | ispinesib -0.104

DUT (UniProt P33316)
inactive: [1] 0.011 | crizotinib -0.032 | [2] 0.117 | [3] -0.046 | duvelisib 0.06 | gandotinib -0.033 | tozasertib -0.045 | [4] 0.011 | doramapimod -0.03 | ispinesib -0.015

DPP3 (UniProt Q9NY33)
inactive: [1] 0.032 | crizotinib -0.133 | [2] 0.126 | [3] -0.026 | duvelisib 0.037 | gandotinib -0.157 | tozasertib -0.032 | [4] 0 | doramapimod -0.019 | ispinesib -0.044

DNAJC6 isoform 2 (UniProt O75061)
inactive: [1] 0.034 | crizotinib 0.009 | [2] 0.158 | [3] -0.062 | duvelisib 0.082 | gandotinib -0.058 | tozasertib 0.032 | [4] 0.024 | doramapimod -0.072 | ispinesib 0.068

Two consecutive entries already listed, quoted:
DUT (UniProt P33316)
inactive: [1] 0.011 | crizotinib -0.032 | [2] 0.117 | [3] -0.046 | duvelisib 0.06 | gandotinib -0.033 | tozasertib -0.045 | [4] 0.011 | doramapimod -0.03 | ispinesib -0.015

DPP3 (UniProt Q9NY33)
inactive: [1] 0.032 | crizotinib -0.133 | [2] 0.126 | [3] -0.026 | duvelisib 0.037 | gandotinib -0.157 | tozasertib -0.032 | [4] 0 | doramapimod -0.019 | ispinesib -0.044

Further results

DYRK1A isoform 2 (UniProt Q13627)
inactive: [1] 0.008 | crizotinib -0.181 | [2] 0.045 | [3] -0.107 | gandotinib -0.102 | [4] 0.042 | doramapimod 0.014 | ispinesib -0.059

DTYMK (UniProt P23919)
inactive: [1] 0.046 | crizotinib -0.146 | [2] 0 | [3] -0.022 | gandotinib -0.217 | [4] -0.009 | doramapimod -0.025 | ispinesib 0.032

DYM (UniProt Q7RTS9)
inactive: [1] -0.035 | crizotinib -0.251 | [2] 0.031 | [3] 0.367 | gandotinib -0.218 | tozasertib 0.025 | doramapimod -0.062 | ispinesib -0.026

DOP1B (UniProt Q9Y3R5)
inactive: [1] -0.052 | crizotinib 0.226 | [2] 0.081 | [3] 0.147 | gandotinib 0.299 | tozasertib -0.182 | doramapimod 0.239 | ispinesib -0.063

DNMT1 isoform 2 (UniProt P26358)
inactive: [1] 0.023 | crizotinib 0.078 | [2] 0.021 | [3] -0.056 | duvelisib 0.014 | gandotinib -0.022 | tozasertib 0.019 | [4] 0.013 | doramapimod -0.014 | ispinesib 0.097

EDC4 (UniProt Q6P2E9)
inactive: [1] -0.064 | crizotinib 0.179 | [2] 0.003 | [3] -0.092 | gandotinib -0.18 | [4] 0.033 | doramapimod 0.005 | ispinesib -0.031

DUS2 (UniProt Q9NX74)
inactive: [1] -0.017 | crizotinib 0.048 | [2] 0.084 | [3] 0.045 | gandotinib 0.036 | [4] 0.062 | doramapimod -0.006 | ispinesib 0.097

DPYSL2 (UniProt Q16555)
inactive: [1] 0.034 | crizotinib 0.025 | [2] -0.09 | [3] 0.023 | gandotinib -0.015 | [4] 0.082 | doramapimod 0.069

EEA1 (UniProt Q15075)
active: ispinesib -0.22
inactive: [1] -0.007 | crizotinib -0.007 | [2] -0.014 | [3] -0.046 | gandotinib 0.02 | [4] -0.04 | doramapimod 0.002

DNAJB14 (UniProt Q8TBM8)
inactive: [1] -0.017 | crizotinib -0.037 | [2] -0.012 | [3] -0.013 | gandotinib -0.071 | tozasertib -0.002 | doramapimod -0.017 | ispinesib -0.083

DPY19L3 (UniProt Q6ZPD9)
inactive: [1] -0.02 | crizotinib 0.087 | [2] -0.15 | [3] -0.07 | duvelisib 0.058 | gandotinib -0.046 | tozasertib 0.022 | [4] -0.015 | doramapimod 0.056 | ispinesib -0.295

DUS3L (UniProt Q96G46)
inactive: [1] -0.015 | crizotinib 0.112 | [2] 0.019 | [3] -0.075 | gandotinib -0.027 | [4] 0.022 | doramapimod 0.033 | ispinesib 0

DPY19L1, A0A1B0GW05
inactive: [1] 0.031 | crizotinib -0.034 | [2] 0.071 | [3] 0.066 | duvelisib 0.052 | tozasertib -0.021 | [4] 0.034 | doramapimod 0.048 | ispinesib 0.115

DPH6 (UniProt Q7L8W6)
inactive: [1] -0.004 | crizotinib -0.137 | [2] 0.056 | [3] 0.006 | duvelisib 0.009 | gandotinib -0.039 | tozasertib -0.036 | [4] 0.07 | doramapimod 0.004 | ispinesib -0.081

DYNLRB1 (UniProt Q9NP97)
inactive: [1] 0.03 | crizotinib 0.087 | [2] 0.108 | [3] -0.108 | duvelisib 0.065 | gandotinib 0.089 | tozasertib 0.008 | [4] -0.029 | doramapimod 0.025 | ispinesib 0.079

DNAJB1 (UniProt P25685)
inactive: [1] -0.004 | crizotinib -0.004 | [2] 0.084 | [3] 0 | gandotinib -0.041 | [4] 0.059 | doramapimod -0.018 | ispinesib 0.019

DNAJC1 (UniProt Q96KC8)
inactive: [1] -0.021 | crizotinib -0.148 | [2] 0.009 | [3] 0.023 | gandotinib -0.094 | [4] 0.009 | doramapimod 0.002
active: ispinesib -0.356

DNAJB12 (UniProt Q9NXW2)
active: ispinesib -0.227
inactive: [1] 0.02 | crizotinib -0.029 | [2] 0.038 | [3] 0.035 | gandotinib -0.073 | [4] 0.097 | doramapimod -0.034

ECH1 (UniProt Q13011)
inactive: [1] 0.025 | crizotinib -0.086 | [2] 0.068 | [3] -0.011 | gandotinib -0.195 | [4] -0.008 | doramapimod -0.023 | ispinesib -0.208
active: tozasertib 0.434

EBP (UniProt Q15125)
inactive: [1] -0.022 | crizotinib 0.063 | [2] 0.34 | [3] -0.088 | duvelisib -0.006 | gandotinib 0.018 | tozasertib 0.043 | [4] 0.044 | doramapimod -0.014 | ispinesib 0.235

DRAP1 isoform 2 (UniProt Q14919)
inactive: [1] 0.021 | crizotinib 0.048 | [2] 0.04 | [3] -0.013 | duvelisib 0.008 | gandotinib 0.052 | tozasertib 0.005 | [4] -0.006 | doramapimod -0.026 | ispinesib 0.035

DOCK8 (UniProt Q8NF50)
inactive: [1] 0.216 | crizotinib -0.011 | [2] -0.075 | gandotinib 0.146 | [4] -0.036 | doramapimod -0.004 | ispinesib -0.402
active: [3] 0.67

DOHH (UniProt Q9BU89)
inactive: [1] 0.049 | crizotinib 0.06 | [2] 0.287 | [3] -0.154 | gandotinib 0.029 | [4] 0.022 | doramapimod 0.005 | ispinesib -0.015
